In PubChem BioAssay AID2685 (National Center for Advancing Translational Sciences (NCATS), 2010):
Some of the results follow. Shown are side measurements of this screen, not its main read-out; they come without a call. The list favours compounds with an active or inconclusive main result. Words in brackets tell the shape of the fitted curve; partial curves, single points and poor fits give uncertain potencies.

Assay: qHTS Assay for Lipid Storage Modulators in Drosophila S3 Cells;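 for cell number change: cells counted by Cell Tracker Red CMTPX staining in the red channel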
Settings: BODIPY lipid droplet fluorescence, 18-24 h; for cell number change: measured here: cell count max response, cells fed with added oleic acid
Summary of the method: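 Drosophila S3 cells loaded with oleic acid (400 uM, as added) and compounds at several concentrations; lipid droplets imaged by 488-nm laser-scanning cytometry, 500–530 nm intensity and object ratio to cell channel. Percent activity normalized to 20 uM Triacsin C.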

[1] = measured here: lipid fluorescence (Fed channel) AC50, cells fed with added oleic acid
[2] = measured here: cell number channel AC50, cells fed with added oleic acid

With `COc1ccc(CC(=O)NC(C)CCc2ccccc2)cc1OC` (stereo unspecified) the cell number change was -12.5% and the AC50 [1] was 0.58 µM [rising, single point].

For `COc1ccc(CNC2CCCc3ccccc32)cc1OC` (stereo unspecified), the cell number change was 21.2% and the AC50 [1] was 1.64 µM [rising, partial curve, poor fit].

With `Cc1cc(C)nc(Sc2c(C)nn(-c3ccccc3)c2C)n1` the cell number change was -11.5%.

In the case of `Cc1cc2nc3c(=O)[nH]c(=O)[nH]c3nc2c([N+](=O)[O-])c1N`, the cell number change is reported as -38.6% and the AC50 [2] is reported as 0.651 µM [falling, full curve].

With `COC1(NC(=O)c2ccccc2)C(C)=CC(=O)C=C1C` the cell number change was 19% and the AC50 [1] was 0.00461 µM [rising, full curve, poor fit].

For `O=S(=O)(NCCC1=CCCCC1)c1ccc(OC(F)(F)F)cc1`, the cell number change was -54.7%, the AC50 [2] was 18.4 µM [falling, single point] and the AC50 [1] was 6.51 µM [rising, single point].

In the case of `CCN1CCCC1CN(Cc1cc2cc(C)ccc2[nH]c1=O)C(=O)Nc1ccccc1OC` (stereo unspecified), the cell number change is reported as -48.1% and the AC50 [1] is reported as 29.1 µM [falling, single point].

With `O=C(CCn1c(=O)oc2ccccc21)Nc1ccc(N2CCOCC2)cc1` the cell number change was 23.5%.

`COC(=O)c1ccc(N2CCN(C(C)=O)CC2)c(NC(=O)c2cccnc2)c1` gave a cell number change of 8.6%.

In the case of `C=CCN(c1ccccc1)S(=O)(=O)c1cccc(C(=O)NCC(c2ccc(OC)cc2)N2CCCCC2)c1` (stereo unspecified), the AC50 [2] is reported as 0.58 µM [rising, partial curve].

For `CCCn1c(N)c(N2CCCCC2)c(=O)n(CC(=O)Nc2ccccc2)c1=O`, the cell number change was 13.8% and the AC50 [1] was 6.51 µM [rising, single point].

In the case of `O=C(NC1CCC(O)CC1)c1cccc2cccnc12` (stereo unspecified), the cell number change is reported as 1.39% and the AC50 [1] is reported as 16.4 µM [rising, partial curve].

Compound `O=C(NC1CCCCC1)N(Cc1nc2ccccc2c(=O)[nH]1)C1CCCCC1` has a cell number change of -0.999%.

For `Cc1ccccc1NC(=O)c1ccc(C)c(S(=O)(=O)Nc2ccccn2)c1`, the AC50 [1] was 0.146 µM [rising, full curve, poor fit].

Work on `CC(/C=C1\SC(=S)N(c2ccc(C(=O)O)cc2)C1=O)=C\c1ccccc1` yielded a cell number change of 10.5%.

With `O=C(CN1C(=O)c2cccc3cccc1c23)N1CCN(c2ccc(F)cc2)CC1` the cell number change was 19.7% and the AC50 [1] was 0.461 µM [rising, full curve, poor fit].

In the case of `CCOC(=O)C1=C(N)Oc2cc(O)ccc2C1c1ccccc1` (stereo unspecified), the cell number change is reported as -25.9% and the AC50 [1] is reported as 20.6 µM [falling, single point].

With `Cc1ccc(C)c(N=Nc2nc3ccccc3n2C)c1` the cell number change was -63.1%, the AC50 [2] was 13 µM [falling, partial curve] and the AC50 [1] was 16.4 µM [falling, single point].

For `CCOc1ccc(N(CC(=O)NCCc2ccc(F)cc2)S(=O)(=O)c2ccccc2)cc1`, the cell number change was 43.3% and the AC50 [2] was 4.61 µM [rising, full curve, poor fit].

`CN(C)S(=O)(=O)c1ccc(N2CCCC2)c(C(=O)N2CCN(c3ccc([N+](=O)[O-])cc3)CC2)c1` gave a cell number change of 30.7%.

In the case of `COc1ccc(/C=N/N2C(=O)CSC2=S)cc1`, the cell number change is reported as 158% and the AC50 [2] is reported as 29.1 µM [rising, single point].

For `Cn1c(SCC(=O)Nc2ccccc2)nc2ccccc2c1=O`, the cell number change was -24.6% and the AC50 [1] was 18.4 µM [rising, single point].

In the case of `Cc1noc(C)c1CC(=O)N1CCCC(C(=O)c2ccc(C(C)(C)C)cc2)C1` (stereo unspecified), the cell number change is reported as -47.5%, the AC50 [2] is reported as 14.6 µM [falling, partial curve] and the AC50 [1] is reported as 32.6 µM [falling, single point].

For `COc1cc(C)nc(Oc2ccc(OCCOc3ccc(C)cc3)nn2)n1`, the cell number change was -26.7% and the AC50 [1] was 10.3 µM [falling, partial curve, poor fit].

In the case of `COc1ccc(NC(=O)C2CC(=O)OC2c2ccccc2)cc1` (stereo unspecified), the cell number change is reported as -37.7%, the AC50 [2] is reported as 0.517 µM [falling, full curve] and the AC50 [1] is reported as 0.13 µM [falling, full curve].

With `O=C(OCC(=O)C12CC3CC(CC(C3)C1)C2)c1ccc(CO)cc1` the cell number change was -3.7%, the AC50 [2] was 6.51 µM [falling, single point] and the AC50 [1] was 6.51 µM [falling, single point].

For `O=C(Nc1cccnc1)c1cc(-c2ccc(Br)cc2)nc2ccccc12`, the cell number change was 24.6% and the AC50 [1] was 0.82 µM [falling, partial curve].

With `NC(=S)N/N=C1\CCSc2ccc(Cl)cc21` the cell number change was 6.46% and the AC50 [1] was 0.461 µM [rising, full curve].

In the case of `O=C(Nc1ccc(C(=O)NCC2CCN(Cc3ccccc3F)CC2)cc1)C1=CSCCO1`, the cell number change is reported as 5.89% and the AC50 [1] is reported as 14.6 µM [rising, partial curve].

In the case of `O=C(Nc1cccc(F)c1)C1CCN(C(=O)c2ccccc2Cl)CC1`, the cell number change is reported as 41.6%, the AC50 [2] is reported as 9.2 µM [rising, partial curve] and the AC50 [1] is reported as 18.4 µM [rising, partial curve].

For `O=S(=O)(c1ccccc1Cl)N1CCC(Cc2ccccc2)CC1`, the cell number change was -9.01%, the AC50 [2] was 0.731 µM [falling, single point] and the AC50 [1] was 29.1 µM [falling, single point].
